Test results taken from patent US10398755.
No constants are given. Whether binding was seen depends on the method and setting. Binding seen in cells or lysates may run through a third protein. Some binding calls cover weakened binding; strength is not graded here.

Sequences of proteins named here, by UniProt entry; tags and fusion partners are left off. A change or cut given only in a name is not applied to a line headed by its entry. A line that says so, or that is headed by a name, gives the form on record, which may keep a tag or linker. Residues count along the entry.
UniProt P33434, residues 30-662: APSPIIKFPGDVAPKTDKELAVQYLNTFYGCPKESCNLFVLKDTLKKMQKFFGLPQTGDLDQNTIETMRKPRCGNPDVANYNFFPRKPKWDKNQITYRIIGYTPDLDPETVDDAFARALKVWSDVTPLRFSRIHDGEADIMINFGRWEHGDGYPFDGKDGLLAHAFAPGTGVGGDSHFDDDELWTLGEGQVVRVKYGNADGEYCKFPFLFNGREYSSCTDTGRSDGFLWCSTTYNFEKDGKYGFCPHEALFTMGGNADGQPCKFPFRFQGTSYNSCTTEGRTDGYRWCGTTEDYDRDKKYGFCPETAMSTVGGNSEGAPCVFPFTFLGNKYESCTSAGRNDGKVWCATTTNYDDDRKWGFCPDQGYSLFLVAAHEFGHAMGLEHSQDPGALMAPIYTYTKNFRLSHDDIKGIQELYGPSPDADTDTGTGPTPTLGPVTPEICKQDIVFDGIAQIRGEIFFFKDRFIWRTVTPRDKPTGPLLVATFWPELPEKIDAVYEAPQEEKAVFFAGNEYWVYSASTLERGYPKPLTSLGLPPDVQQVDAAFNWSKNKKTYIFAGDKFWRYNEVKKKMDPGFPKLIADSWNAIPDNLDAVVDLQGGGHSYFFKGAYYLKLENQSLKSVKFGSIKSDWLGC
UniProt P41245, residues 20-730: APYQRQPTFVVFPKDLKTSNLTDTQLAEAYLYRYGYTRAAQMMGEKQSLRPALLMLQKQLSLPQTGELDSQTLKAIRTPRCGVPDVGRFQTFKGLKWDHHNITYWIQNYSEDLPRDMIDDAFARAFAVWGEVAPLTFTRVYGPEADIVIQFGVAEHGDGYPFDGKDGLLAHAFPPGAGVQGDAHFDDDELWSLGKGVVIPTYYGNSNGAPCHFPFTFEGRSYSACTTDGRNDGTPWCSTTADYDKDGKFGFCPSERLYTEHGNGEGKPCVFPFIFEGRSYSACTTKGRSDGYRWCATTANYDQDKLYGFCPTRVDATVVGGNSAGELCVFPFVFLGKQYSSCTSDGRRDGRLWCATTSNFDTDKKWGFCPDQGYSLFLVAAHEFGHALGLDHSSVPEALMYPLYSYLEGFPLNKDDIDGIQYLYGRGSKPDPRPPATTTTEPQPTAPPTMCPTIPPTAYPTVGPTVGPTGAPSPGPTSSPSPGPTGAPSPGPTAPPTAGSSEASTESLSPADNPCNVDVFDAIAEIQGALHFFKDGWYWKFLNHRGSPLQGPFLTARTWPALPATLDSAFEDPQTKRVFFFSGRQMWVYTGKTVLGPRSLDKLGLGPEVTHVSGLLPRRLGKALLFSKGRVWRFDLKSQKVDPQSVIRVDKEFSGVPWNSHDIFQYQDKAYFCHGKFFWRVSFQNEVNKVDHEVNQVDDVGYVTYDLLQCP
mouse CLU with a C-terminal Myc tag (CLU-Myc), full length cDNA expressed in HEK293 cells (Q06890, residues 22-448): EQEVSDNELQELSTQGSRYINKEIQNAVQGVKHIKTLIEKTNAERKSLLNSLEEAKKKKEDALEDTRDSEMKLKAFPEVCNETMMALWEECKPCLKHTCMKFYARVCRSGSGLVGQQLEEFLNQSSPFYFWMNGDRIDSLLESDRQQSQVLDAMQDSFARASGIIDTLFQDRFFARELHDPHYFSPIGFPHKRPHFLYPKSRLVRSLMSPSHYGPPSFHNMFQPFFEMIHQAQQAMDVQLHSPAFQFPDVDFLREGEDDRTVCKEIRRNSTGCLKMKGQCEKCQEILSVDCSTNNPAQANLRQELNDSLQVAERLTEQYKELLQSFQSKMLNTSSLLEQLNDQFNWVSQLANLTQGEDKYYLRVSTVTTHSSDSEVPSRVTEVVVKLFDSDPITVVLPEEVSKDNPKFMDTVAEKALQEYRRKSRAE
mouse CLU with C-terminal (His)6 (CLU-His), recombinant secreted clusterin (Q06890, form named): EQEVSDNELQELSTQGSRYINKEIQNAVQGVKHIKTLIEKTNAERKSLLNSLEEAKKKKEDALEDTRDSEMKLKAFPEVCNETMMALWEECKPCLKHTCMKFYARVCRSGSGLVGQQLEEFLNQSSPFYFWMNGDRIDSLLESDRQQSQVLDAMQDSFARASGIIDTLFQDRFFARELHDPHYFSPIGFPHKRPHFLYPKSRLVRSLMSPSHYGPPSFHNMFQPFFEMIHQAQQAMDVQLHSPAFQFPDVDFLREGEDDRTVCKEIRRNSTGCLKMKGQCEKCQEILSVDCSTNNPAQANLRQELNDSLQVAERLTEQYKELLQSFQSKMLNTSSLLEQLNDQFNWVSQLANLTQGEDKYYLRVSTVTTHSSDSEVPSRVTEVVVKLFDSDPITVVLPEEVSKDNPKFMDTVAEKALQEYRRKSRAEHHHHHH

Experiments:
[1] = target: MMP-2, mouse recombinant protein secreted from NS0 cells (as used in Example 1) (mouse) (UniProt P33434); assay: pull-down with His-tagged CLU, gelatin zymography (FIG. 7)
[2] = target: MMP-9, mouse recombinant protein secreted from NS0 cells (as used in Example 1) (mouse) (UniProt P41245); assay: as above
[3] = target: MMP-2, mouse recombinant protein secreted from NS0 cells (as used in Example 1) (mouse) (UniProt P33434); assay: pull-down with His-tagged CLU and anti-His tag antibody resin, 150 mM NaCl, gelatin zymography
[4] = target: MMP-9, mouse recombinant protein secreted from NS0 cells (as used in Example 1) (mouse) (UniProt P41245); assay: as above
[5] = target: mouse MMP-9 with a C-terminal HA tag (MMP-9-HA), full length cDNA expressed in HEK293 cells (mouse) (UniProt P41245); assay: co-immunoprecipitation from transfected HEK293 lysates (FIG. 2A)
[6] = target: mouse MMP-9 with a C-terminal HA tag (MMP-9-HA), full length cDNA expressed in HEK293 cells (mouse) (UniProt P41245); assay: co-immunoprecipitation from transfected HEK293 lysates: anti-HA IP, anti-Myc immunoblot

| binding [1] | binding [2] | binding [3] | binding [4] | binding [5] | binding [6] | Substance |
| --- | --- | --- | --- | --- | --- | --- |
| binds | binds | binds | binds |  |  | mouse CLU with C-terminal (His)6 (CLU-His), recombinant secreted clusterin (from UniProt Q06890 22-448) |
|  |  |  |  | binds | binds | mouse CLU with a C-terminal Myc tag (CLU-Myc), full length cDNA expressed in HEK293 cells (from UniProt Q06890 22-448) |
